# According to PubChem BioAssay AID2685 (National Center for Advancing Translational Sciences (NCATS), 2010):
# The other results are listed elsewhere or left out. Further columns of the screen follow, without active or inactive calls. The list favours compounds with an active or inconclusive main result. Words in brackets tell the shape of the fitted curve; partial curves, single points and poor fits give uncertain potencies.
# Experiment: qHTS Assay for Lipid Storage Modulators in Drosophila S3 Cells;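 for cell number change: cells counted by Cell Tracker Red CMTPX staining in the red channel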
# Settings: BODIPY lipid droplet fluorescence, 18-24 h; for cell number change: measured here: cell count max response, cells fed with added oleic acid
# Summary of the method: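 Drosophila S3 cells got compounds at several concentrations plus oleic acid (400 uM solution). Laser-scanning cytometry with 488 nm excitation read lipid droplets at 500-530 nm and cells at 575-640 nm. Percent activity was relative to 20 uM Triacsin C.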
# [1] = measured here: lipid fluorescence (Fed channel) AC50, cells fed with added oleic acid
# [2] = measured here: cell number channel AC50, cells fed with added oleic acid
SMILES,cell number change,AC50 [1],AC50 [2]
O=C(CSc1ccccn1)Nc1ccccc1F,-7.75%,"0.058 µM [falling, full curve, poor fit]",–
CC(=O)CCC(=O)c1ccc2ccccc2c1,18.2%,"20.6 µM [rising, partial curve]",–
CN(C)c1nc(C(=O)Nc2ccccc2)nc(N(C)C)n1,1.09%,"8.2 µM [rising, partial curve]",–
CCOC(=O)c1c(NC(C)=O)sc(C(=O)NC2CCCC2)c1C,11.8%,–,"0.0326 µM [rising, full curve, poor fit]"
CCOc1ccc(C(=O)COC(=O)c2cc([N+](=O)[O-])ccc2N2CCOCC2)cc1,5.77%,–,–
Cc1ccc(SCCC(=O)N(C)C)cc1,-21.6%,"3.26 µM [falling, full curve]","6.51 µM [falling, single point]"
C/C(=N\NC(=O)Cc1csc(N2CCOCC2)n1)c1ccc(Cl)c(Cl)c1,–,–,"6.51 µM [rising, single point]"
Cc1ccc(N2C(=O)CC(C)(C)CC2=O)cc1Cl,4.56%,"29.1 µM [rising, single point]",–
Cc1oc(-c2cccs2)[n+]([O-])c1C,39.1%,–,"29.1 µM [rising, single point]"
Cc1ccc(-n2[nH]c(C)c(/C=N/n3c(C)nc4ccccc4c3=O)c2=O)cc1,85%,–,"5.8 µM [rising, full curve]"
CC(Sc1n[nH]c(-c2cccs2)n1)C(=O)Nc1ccccc1F (centres undefined),0.774%,"3.66 µM [falling, single point]",–
Cc1c(OC(C)C(=O)NCC(O)c2ccccc2)ccc2c3c(c(=O)oc12)CCCC3 (centres undefined),–,"29.1 µM [falling, single point]",–
Clc1ccc(Cc2nnc(-c3ccccc3Br)o2)cc1,-0.553%,–,–
CCOC(=O)c1c(C)[nH]c2c1-c1ccccc1C(=O)C2=O,-27.8%,"5.17 µM [falling, partial curve]","4.11 µM [falling, full curve, poor fit]"
COc1ccccc1-n1c(C)nc2cc(C(=O)NCC3CCCO3)ccc21 (centres undefined),63%,"29.1 µM [rising, single point]","29.1 µM [rising, single point]"
c1ccc(CCC2=NCCn3cccc32)cc1,-19.1%,–,–
C/C(=N\NC(=O)c1ccccc1)c1ccc(N2CCCCC2)cc1,9.94%,"0.58 µM [rising, single point]",–
Cc1c(C(=O)N2CCc3ccccc3C2)oc2ccc(S(=O)(=O)N3CC(C)CC(C)C3)cc12 (centres undefined),-13.8%,–,–
COc1ccc(CCNC(=O)CSc2nc3ccccc3o2)cc1OC,-8.16%,"0.82 µM [falling, partial curve, poor fit]","0.092 µM [falling, full curve]"
O=C(NCC1CCCO1)C1CCCCN1S(=O)(=O)c1ccc(F)cc1 (centres undefined),6.29%,"25.9 µM [falling, partial curve]",–
O=C(NC1CCCN(Cc2ccc(Cl)cc2)C1)C1CCC1 (centres undefined),-18.4%,–,–

# In another format: 15 of the compounds above.
SMILES	cell number change	AC50 [1]	AC50 [2]
O=C(CSc1ccccn1)Nc1ccccc1F	-7.75%	0.058 µM [falling, full curve, poor fit]	–
CN(C)c1nc(C(=O)Nc2ccccc2)nc(N(C)C)n1	1.09%	8.2 µM [rising, partial curve]	–
Cc1ccc(SCCC(=O)N(C)C)cc1	-21.6%	3.26 µM [falling, full curve]	6.51 µM [falling, single point]
C/C(=N\NC(=O)Cc1csc(N2CCOCC2)n1)c1ccc(Cl)c(Cl)c1	–	–	6.51 µM [rising, single point]
Cc1ccc(N2C(=O)CC(C)(C)CC2=O)cc1Cl	4.56%	29.1 µM [rising, single point]	–
Cc1oc(-c2cccs2)[n+]([O-])c1C	39.1%	–	29.1 µM [rising, single point]
Cc1ccc(-n2[nH]c(C)c(/C=N/n3c(C)nc4ccccc4c3=O)c2=O)cc1	85%	–	5.8 µM [rising, full curve]
CC(Sc1n[nH]c(-c2cccs2)n1)C(=O)Nc1ccccc1F (centres undefined)	0.774%	3.66 µM [falling, single point]	–
Cc1c(OC(C)C(=O)NCC(O)c2ccccc2)ccc2c3c(c(=O)oc12)CCCC3 (centres undefined)	–	29.1 µM [falling, single point]	–
Clc1ccc(Cc2nnc(-c3ccccc3Br)o2)cc1	-0.553%	–	–
CCOC(=O)c1c(C)[nH]c2c1-c1ccccc1C(=O)C2=O	-27.8%	5.17 µM [falling, partial curve]	4.11 µM [falling, full curve, poor fit]
COc1ccccc1-n1c(C)nc2cc(C(=O)NCC3CCCO3)ccc21 (centres undefined)	63%	29.1 µM [rising, single point]	29.1 µM [rising, single point]
C/C(=N\NC(=O)c1ccccc1)c1ccc(N2CCCCC2)cc1	9.94%	0.58 µM [rising, single point]	–
Cc1c(C(=O)N2CCc3ccccc3C2)oc2ccc(S(=O)(=O)N3CC(C)CC(C)C3)cc12 (centres undefined)	-13.8%	–	–
O=C(NCC1CCCO1)C1CCCCN1S(=O)(=O)c1ccc(F)cc1 (centres undefined)	6.29%	25.9 µM [falling, partial curve]	–

# Next part:

SMILES,cell number change,AC50 [1],AC50 [2]
O=C1OC(/C=C/c2ccc(Cl)cc2)=NC/1=C/c1ccco1,30%,"18.4 µM [falling, partial curve]","0.411 µM [rising, full curve]"
N/C(Cn1cncn1)=N\OC(=O)c1ccc(Cl)cc1,-10.2%,–,–
COC(=O)c1ccccc1NC(=O)CN(C)S(=O)(=O)c1ccc(OC)c(C)c1,2.18%,"9.2 µM [rising, partial curve]",–
O=C(Cn1c(=O)n(Cc2ccco2)c(=O)c2c3c(sc21)CCCCC3)c1ccccc1,10.5%,"20.6 µM [rising, partial curve, poor fit]",–
CCOC(=O)C1CCN(C(=O)CCc2c(C)nc3ncnn3c2C)CC1,15.5%,"0.116 µM [falling, full curve, poor fit]",–
C=CCn1c(SCC(=O)N2CC(C)OC(C)C2)nnc1-c1ccncc1 (centres undefined),10.3%,"0.116 µM [falling, full curve, poor fit]",–
COc1ccc(-c2noc(C(=O)NCc3ccccc3Cl)n2)cc1OC,15%,–,–
N#Cc1c(-c2ccccc2)nc(SCC(=O)Nc2nnc(C(F)(F)F)s2)[nH]c1=O,-36.6%,–,"1.3 µM [rising, full curve]"
CC1CC(C)CN(S(=O)(=O)c2ccc(NC(=S)NC(=O)c3ccccc3)cc2)C1 (centres undefined),11.9%,"13 µM [rising, partial curve, poor fit]",–
Cc1ccc(S(=O)(=O)N(C)C)cc1NC(=O)c1ccncc1,25.6%,"0.58 µM [falling, single point]",–
CCN(CC)c1ccc(NC(=O)C2CC(=O)N(Cc3ccccc3)C2)cc1 (centres undefined),39.8%,–,"23.1 µM [rising, partial curve, poor fit]"
CCOC(=O)C1C(=O)NC(c2ccccc2)=NC1c1ccc(Cl)cc1 (centres undefined),29%,"3.66 µM [rising, single point]","4.11 µM [rising, full curve, poor fit]"
CCOc1ccc2c(c1)C(c1ccccc1)=NNC(c1ccccc1)=N2,-32%,"11.6 µM [falling, partial curve]","18.4 µM [falling, single point]"
C/C(=N\OCC(=O)OCC(=O)N(C)c1ccccc1)c1ccc2c(c1)OCO2,-14.8%,"18.4 µM [falling, single point]",–
CCNc1cc(=O)n(C)c(=O)n1C,-18.9%,"0.517 µM [falling, full curve, poor fit]","0.13 µM [falling, full curve, poor fit]"
Cc1ccc2cc3c(NC(=O)c4ccco4)nn(CC(C)C)c3nc2c1,-38.7%,"16.4 µM [falling, single point]","11.6 µM [falling, partial curve]"
COC(=O)c1nnn(-c2ccc(Cl)c(Cl)c2)c1C(=O)OC,3.64%,–,–
CN(c1ccccc1)S(=O)(=O)c1cccc(NC(=O)c2cncc(Br)c2)c1,-5.3%,"4.11 µM [rising, single point]",–
CN1CCN(C(=O)c2ccc3c(Cl)c4c(nc3c2)CCCC4)CC1,-87.7%,–,–
N=c1c(C(=O)NC2CCCC2)cc2c(=O)n3ccccc3nc2n1CCCN1CCOCC1,7.83%,"29.1 µM [falling, single point]",–
Cn1cnc2c1c(=O)n(CC(O)CO)c(=O)n2C (centres undefined),-16.5%,"0.517 µM [falling, partial curve]",–

SMILES,cell number change,AC50 [1],AC50 [2]
O=S(=O)(c1cccc(COc2c(Cl)cccc2Cl)c1)N1CCOCC1,-37.8%,–,"0.00411 µM [falling, full curve, poor fit]"
COCCNC(=O)CN1CCC(NC(=O)Nc2ccccc2)CC1,1.45%,"23.1 µM [falling, single point]",–
COc1ccc(C(=O)N2CCCC(CO)(Cc3ccccc3C)C2)o1 (centres undefined),-14.7%,"0.00461 µM [falling, full curve, poor fit]",–
CCC(C(=O)O)N1C(=O)/C(=C/c2cccn2C)SC1=S (centres undefined),-7.87%,"0.517 µM [falling, full curve, poor fit]",–
O=C(C1COc2ccccc2O1)N1CCN(c2nc3c(F)cc(F)cc3s2)CC1 (centres undefined),-2.88%,–,–
CC(C(=O)Nc1ccccc1C(F)(F)F)N1CCN(C)CC1 (centres undefined),3.65%,"0.58 µM [rising, single point]",–
NC(=O)c1ccc(NC(=O)CNC(c2ccccc2)c2ccccc2)cc1,16.3%,–,–
O=C1/C(=C/c2ccc(F)cc2)SC(=S)N1N1CCOCC1,-7.68%,–,–
CCOC(=O)C1CCN(C(=O)/C=C/c2cc(OC)c(OC)c(OC)c2)CC1,-29.2%,–,"0.146 µM [rising, full curve, poor fit]"
Cc1ccsc1C(=O)OCC(=O)Nc1cccc(F)c1,-10.4%,"6.51 µM [rising, partial curve, poor fit]",–
Cc1nn(-c2cc(N3CCCC3)ccc2[N+](=O)[O-])c(=O)c2ccccc12,-1.52%,"6.51 µM [falling, partial curve, poor fit]",–
CCOc1ccccc1NS(=O)(=O)c1csc(C(N)=O)c1,–,"6.51 µM [rising, single point]",–
COc1ccc(N2C(N)=C(C#N)C(c3cccnc3)C3=C2CC(C)(C)CC3=O)cc1 (centres undefined),–,"0.326 µM [rising, full curve]","0.206 µM [rising, full curve]"
CC(C)NC(=O)NC(=O)COC(=O)c1ccc(NC(=O)CC#N)cc1,5.39%,"6.51 µM [falling, single point]",–
O=C(O)CSCC(=O)N1CCCCC1,-8.27%,"1.3 µM [falling, full curve, poor fit]",–
O=C(CNCc1ccccc1)NCCCN1CCCC1=O,28.9%,–,"4.61 µM [rising, full curve, poor fit]"
COc1ccc(CNC(=O)COC(=O)CCc2c[nH]c3ccccc23)cc1,-6.46%,"4.61 µM [falling, single point]","2.59 µM [falling, single point]"
Cc1ccc(C(c2nnnn2CCC(C)C)N2CCN(C)CC2)cc1 (centres undefined),-57.4%,–,"16.4 µM [falling, single point]"
Cc1ccc(S(C)(=O)=O)cc1C(=O)Nc1ccc(S(=O)(=O)Nc2nccs2)cc1,16.9%,"29.1 µM [rising, single point]",–
Cc1ccc(NC(=O)c2ccc(NCCN)c([N+](=O)[O-])c2)cc1,-24%,–,"0.82 µM [rising, full curve]"
